Our source for the log2 fold change values is the supplement of paper PMC12819154, “High-throughput peptide-centric local stability assay extends protein–ligand identification to membrane proteins, tissues and bacteria” (Nature Structural & Molecular Biology, 2025).

By UniProt entry, the sequences of proteins in these tests, tags left out. Where a name states a change or a piece, a line headed by the entry shows the natural chain unless it says otherwise.
UniProt Q9Y6A4: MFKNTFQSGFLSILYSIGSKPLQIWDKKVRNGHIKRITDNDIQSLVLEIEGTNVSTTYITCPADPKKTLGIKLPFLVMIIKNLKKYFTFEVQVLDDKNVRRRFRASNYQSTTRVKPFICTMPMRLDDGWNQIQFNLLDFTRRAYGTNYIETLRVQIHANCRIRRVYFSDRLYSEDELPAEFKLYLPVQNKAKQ
UniProt Q9Y6H1: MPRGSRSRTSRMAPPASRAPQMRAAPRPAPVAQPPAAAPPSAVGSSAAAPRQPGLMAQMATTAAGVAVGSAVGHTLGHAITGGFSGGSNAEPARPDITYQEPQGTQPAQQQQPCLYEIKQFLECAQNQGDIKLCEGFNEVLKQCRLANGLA
UniProt Q9Y5L4: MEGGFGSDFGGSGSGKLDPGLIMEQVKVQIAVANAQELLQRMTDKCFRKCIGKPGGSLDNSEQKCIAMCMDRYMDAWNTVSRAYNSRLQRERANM
UniProt Q9Y5U2: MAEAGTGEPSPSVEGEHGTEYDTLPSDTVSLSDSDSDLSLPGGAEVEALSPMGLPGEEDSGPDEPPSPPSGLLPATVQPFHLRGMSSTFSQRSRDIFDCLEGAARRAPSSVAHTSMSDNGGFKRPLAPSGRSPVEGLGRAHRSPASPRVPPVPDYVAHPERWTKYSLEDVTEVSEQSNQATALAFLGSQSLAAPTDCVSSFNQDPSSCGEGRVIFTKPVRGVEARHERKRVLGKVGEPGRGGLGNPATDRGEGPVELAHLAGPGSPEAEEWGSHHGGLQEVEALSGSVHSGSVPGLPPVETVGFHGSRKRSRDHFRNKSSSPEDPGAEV
UniProt Q9Y5A9: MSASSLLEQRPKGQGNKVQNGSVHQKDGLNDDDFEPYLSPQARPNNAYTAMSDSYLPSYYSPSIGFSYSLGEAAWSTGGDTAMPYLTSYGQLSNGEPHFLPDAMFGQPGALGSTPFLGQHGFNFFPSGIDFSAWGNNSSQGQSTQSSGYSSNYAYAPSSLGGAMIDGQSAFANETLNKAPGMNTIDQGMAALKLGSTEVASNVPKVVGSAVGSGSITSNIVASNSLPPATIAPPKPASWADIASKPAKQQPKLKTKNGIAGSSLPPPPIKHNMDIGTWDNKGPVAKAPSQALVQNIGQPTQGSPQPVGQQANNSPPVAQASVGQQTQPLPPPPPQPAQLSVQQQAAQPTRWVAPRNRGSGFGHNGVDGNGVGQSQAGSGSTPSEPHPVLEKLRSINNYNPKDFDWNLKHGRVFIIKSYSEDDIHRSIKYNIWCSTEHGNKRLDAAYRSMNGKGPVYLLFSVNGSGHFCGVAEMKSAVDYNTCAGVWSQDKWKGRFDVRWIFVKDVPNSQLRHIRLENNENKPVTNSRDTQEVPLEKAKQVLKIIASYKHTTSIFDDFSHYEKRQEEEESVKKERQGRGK
UniProt Q9Y6B6: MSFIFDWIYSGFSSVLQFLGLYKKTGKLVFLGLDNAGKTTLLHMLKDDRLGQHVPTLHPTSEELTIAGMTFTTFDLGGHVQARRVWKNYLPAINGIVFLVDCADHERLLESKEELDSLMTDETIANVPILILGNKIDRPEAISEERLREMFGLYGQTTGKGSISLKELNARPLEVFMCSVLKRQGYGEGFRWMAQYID
UniProt Q9Y6I7: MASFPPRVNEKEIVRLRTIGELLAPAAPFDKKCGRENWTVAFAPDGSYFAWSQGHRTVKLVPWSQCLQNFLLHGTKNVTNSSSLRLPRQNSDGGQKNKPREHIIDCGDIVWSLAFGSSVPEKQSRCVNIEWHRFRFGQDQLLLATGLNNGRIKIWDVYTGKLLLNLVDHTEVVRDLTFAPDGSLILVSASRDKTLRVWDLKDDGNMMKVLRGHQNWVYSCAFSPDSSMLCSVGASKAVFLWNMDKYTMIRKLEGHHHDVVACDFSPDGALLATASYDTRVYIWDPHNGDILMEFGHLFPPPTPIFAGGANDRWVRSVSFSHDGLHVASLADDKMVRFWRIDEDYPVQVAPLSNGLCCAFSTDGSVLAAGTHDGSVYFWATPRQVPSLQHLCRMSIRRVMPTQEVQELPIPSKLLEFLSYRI
UniProt Q9Y6R9: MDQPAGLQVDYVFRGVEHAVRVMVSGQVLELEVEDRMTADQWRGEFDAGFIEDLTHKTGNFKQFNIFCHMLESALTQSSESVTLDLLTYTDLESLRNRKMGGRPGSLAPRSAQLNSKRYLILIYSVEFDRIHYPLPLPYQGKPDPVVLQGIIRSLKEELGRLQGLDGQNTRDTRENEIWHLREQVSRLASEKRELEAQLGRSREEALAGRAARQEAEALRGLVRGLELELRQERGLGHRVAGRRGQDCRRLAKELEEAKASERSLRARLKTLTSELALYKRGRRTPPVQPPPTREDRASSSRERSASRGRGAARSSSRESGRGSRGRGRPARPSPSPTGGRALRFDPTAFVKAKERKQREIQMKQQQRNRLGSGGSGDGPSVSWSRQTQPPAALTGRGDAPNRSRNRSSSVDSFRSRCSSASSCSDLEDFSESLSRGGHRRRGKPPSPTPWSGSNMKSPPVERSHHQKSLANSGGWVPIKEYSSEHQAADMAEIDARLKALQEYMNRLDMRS
UniProt Q9Y4F3: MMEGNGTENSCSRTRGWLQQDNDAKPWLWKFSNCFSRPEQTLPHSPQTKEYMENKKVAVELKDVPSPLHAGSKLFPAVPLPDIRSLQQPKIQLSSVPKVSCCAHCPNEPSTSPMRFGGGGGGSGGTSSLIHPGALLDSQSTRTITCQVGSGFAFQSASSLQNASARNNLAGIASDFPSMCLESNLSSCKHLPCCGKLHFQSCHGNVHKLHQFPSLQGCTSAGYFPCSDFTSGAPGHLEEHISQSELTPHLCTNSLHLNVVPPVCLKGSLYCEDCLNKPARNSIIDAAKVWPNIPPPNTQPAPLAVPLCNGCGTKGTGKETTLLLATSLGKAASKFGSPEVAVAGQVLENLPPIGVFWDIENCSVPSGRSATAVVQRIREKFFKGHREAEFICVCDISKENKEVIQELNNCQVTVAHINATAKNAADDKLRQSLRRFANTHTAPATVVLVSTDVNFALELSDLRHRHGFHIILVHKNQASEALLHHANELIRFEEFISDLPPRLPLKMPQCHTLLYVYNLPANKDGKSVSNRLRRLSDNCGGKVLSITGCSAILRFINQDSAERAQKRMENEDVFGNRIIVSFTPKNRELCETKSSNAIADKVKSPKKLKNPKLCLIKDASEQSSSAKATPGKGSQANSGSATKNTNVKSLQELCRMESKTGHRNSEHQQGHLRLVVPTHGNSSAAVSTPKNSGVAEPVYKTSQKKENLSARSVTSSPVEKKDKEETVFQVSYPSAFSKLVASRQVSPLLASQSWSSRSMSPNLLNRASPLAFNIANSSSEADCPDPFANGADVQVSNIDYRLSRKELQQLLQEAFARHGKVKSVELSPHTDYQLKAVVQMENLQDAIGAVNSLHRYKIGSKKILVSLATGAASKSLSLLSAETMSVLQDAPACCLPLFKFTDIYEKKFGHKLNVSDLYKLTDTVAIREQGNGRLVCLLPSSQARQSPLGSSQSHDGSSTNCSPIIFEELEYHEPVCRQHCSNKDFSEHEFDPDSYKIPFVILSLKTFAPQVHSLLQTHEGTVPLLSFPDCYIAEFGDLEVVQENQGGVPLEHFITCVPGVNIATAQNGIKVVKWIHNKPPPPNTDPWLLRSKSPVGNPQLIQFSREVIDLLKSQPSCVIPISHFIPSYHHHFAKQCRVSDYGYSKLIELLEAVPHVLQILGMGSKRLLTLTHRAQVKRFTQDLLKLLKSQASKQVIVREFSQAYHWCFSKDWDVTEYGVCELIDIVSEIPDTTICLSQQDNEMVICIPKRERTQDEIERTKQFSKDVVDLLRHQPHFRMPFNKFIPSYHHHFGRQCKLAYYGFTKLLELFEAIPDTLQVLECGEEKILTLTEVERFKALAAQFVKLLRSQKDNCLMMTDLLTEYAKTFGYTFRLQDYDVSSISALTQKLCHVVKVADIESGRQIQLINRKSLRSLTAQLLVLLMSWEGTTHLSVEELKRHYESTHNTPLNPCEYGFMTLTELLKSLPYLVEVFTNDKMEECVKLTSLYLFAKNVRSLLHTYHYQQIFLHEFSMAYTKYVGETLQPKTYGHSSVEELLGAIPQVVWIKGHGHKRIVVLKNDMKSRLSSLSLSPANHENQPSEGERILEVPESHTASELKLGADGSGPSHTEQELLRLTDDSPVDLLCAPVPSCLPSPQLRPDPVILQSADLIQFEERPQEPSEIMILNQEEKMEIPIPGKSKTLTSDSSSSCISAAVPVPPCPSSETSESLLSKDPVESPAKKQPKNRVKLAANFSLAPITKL
UniProt Q9Y3D0: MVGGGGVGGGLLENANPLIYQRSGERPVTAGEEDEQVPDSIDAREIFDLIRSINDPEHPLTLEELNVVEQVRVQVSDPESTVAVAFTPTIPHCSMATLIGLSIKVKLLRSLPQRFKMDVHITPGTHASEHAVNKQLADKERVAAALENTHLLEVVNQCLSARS
UniProt Q9Y6R0: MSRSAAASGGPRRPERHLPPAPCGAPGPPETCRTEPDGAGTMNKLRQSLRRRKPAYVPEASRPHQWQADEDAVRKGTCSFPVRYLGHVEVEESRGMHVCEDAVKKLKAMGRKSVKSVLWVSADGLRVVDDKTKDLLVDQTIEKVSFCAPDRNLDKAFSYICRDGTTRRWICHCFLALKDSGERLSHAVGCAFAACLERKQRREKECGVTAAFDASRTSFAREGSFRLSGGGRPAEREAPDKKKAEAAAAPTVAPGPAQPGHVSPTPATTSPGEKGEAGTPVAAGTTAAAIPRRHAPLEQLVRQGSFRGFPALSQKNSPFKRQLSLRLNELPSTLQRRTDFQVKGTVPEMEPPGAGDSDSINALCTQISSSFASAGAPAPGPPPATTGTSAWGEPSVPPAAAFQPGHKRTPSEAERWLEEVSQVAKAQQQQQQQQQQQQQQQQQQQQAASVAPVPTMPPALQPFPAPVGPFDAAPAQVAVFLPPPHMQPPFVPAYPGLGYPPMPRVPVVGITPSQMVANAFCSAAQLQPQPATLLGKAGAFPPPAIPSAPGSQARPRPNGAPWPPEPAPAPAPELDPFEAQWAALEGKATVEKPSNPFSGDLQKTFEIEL
UniProt Q9Y6B2: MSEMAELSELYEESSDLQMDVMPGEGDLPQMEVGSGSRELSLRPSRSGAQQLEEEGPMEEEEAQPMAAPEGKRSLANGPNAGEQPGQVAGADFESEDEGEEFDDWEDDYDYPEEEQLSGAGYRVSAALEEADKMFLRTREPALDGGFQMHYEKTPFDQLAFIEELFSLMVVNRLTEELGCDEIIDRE
UniProt Q9Y608: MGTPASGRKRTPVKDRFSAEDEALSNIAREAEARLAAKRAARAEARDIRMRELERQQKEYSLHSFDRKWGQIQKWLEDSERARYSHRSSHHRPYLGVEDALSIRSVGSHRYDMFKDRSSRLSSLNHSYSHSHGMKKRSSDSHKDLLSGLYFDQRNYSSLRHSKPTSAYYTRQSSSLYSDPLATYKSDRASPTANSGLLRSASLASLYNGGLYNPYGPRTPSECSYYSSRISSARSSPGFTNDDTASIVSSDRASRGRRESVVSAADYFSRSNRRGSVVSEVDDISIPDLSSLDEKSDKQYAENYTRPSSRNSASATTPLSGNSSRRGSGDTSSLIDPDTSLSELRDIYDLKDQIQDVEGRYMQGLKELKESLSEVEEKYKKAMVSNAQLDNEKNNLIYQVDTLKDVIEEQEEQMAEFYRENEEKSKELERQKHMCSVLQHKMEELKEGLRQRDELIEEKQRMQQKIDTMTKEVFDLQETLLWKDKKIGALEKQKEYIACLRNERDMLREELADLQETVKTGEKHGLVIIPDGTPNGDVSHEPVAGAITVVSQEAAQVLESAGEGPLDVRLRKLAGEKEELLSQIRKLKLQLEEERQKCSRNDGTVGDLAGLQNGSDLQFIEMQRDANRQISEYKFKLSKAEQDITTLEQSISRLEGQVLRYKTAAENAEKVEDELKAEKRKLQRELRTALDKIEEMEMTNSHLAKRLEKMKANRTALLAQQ
UniProt Q9Y4K3: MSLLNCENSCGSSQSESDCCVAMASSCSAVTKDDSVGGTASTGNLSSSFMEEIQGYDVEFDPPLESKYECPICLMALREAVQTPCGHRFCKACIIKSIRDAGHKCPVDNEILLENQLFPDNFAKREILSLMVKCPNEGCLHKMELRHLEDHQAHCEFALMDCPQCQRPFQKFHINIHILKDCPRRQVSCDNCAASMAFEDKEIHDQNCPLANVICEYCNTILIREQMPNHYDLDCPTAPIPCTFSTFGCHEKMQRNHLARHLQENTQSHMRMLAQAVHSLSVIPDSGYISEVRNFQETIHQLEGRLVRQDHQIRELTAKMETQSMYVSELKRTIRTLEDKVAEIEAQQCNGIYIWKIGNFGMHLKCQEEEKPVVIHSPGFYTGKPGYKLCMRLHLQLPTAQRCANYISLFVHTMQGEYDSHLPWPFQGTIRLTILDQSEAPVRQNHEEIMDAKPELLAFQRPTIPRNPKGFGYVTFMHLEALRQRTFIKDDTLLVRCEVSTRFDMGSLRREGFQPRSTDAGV
UniProt Q9Y3C7: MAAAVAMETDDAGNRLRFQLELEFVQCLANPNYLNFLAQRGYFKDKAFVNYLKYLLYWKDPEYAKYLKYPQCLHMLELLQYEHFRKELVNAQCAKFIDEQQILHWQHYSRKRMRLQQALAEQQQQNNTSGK

The other results are listed elsewhere or left out. Most entries show no effect beyond the scatter of the controls.

Compound in the experiment: CN[C@@H]1C[C@H]2O[C@@](C)([C@@H]1OC)n1c3ccccc3c3c4c(c5c6ccccc6n2c5c31)C(=O)NC4 [staurosporine]
Briefly: log2 fold change of tryptic peptide abundance, ligand vs vehicle (limited proteolysis) (log2 ratio); higher = more trypsin-susceptible (destabilized). Conditions: ligand concentration: 20 uM; sample: K562 cleared lysate; digestion: 4 min, 22 C (HT-PELSA RT4min, Orbitrap Astral).
“MRPL42 (peptide sequence: VEHLEEGPMIEQLSK, peptide start residue: 100) (UniProt Q9Y6G3)”: the log2 fold change is -0.0123.

Turning to “UniProt Q9Y6A4 (peptide sequence: LYLPVQNK, peptide start residue: 183)”, the log2 fold change is 0.0864.

In the case of “CHCHD2 (peptide sequence: AAPRPAPVAQPPAAAPPSAVGSSAAAPR, peptide start residue: 24) (UniProt Q9Y6H1)”, the log2 fold change was -0.0183.

“CTDP1 (peptide sequence: ENSPAAFPDR, peptide start residue: 738) (UniProt Q9Y5B0)”: the log2 fold change is -0.207.

On to “ZSCAN21 (peptide sequence: QCVNLENEK, peptide start residue: 240) (UniProt Q9Y5A6)”, for which the log2 fold change is 0.364.

“TIMM13 (peptide sequence: VQIAVANAQELLQR, peptide start residue: 28) (UniProt Q9Y5L4)”: the log2 fold change is -0.342.

In the case of “TSSC4 (peptide sequence: DIFDCLEGAAR, peptide start residue: 95) (UniProt Q9Y5U2)”, the log2 fold change stood at 0.0544.

For “LAS1L (peptide sequence: CLAQEVNIPDWIVDLR, peptide start residue: 140) (UniProt Q9Y4W2)”, the log2 fold change was -0.31.

With “YTHDF2 (peptide sequence: DGLNDDDFEPYLSPQAR, peptide start residue: 27) (UniProt Q9Y5A9)”, the log2 fold change was -0.329.

Take “SLC30A1 (peptide sequence: AENIPAVVIEIK, peptide start residue: 485) (UniProt Q9Y6M5)”: the log2 fold change was -0.0629.

Take “SRPRB (peptide sequence: SAAPSTLDSSSTAPAQLGKK, peptide start residue: 209) (UniProt Q9Y5M8)”: the log2 fold change is -0.134.

For “SAR1B (peptide sequence: TTLLHMLKDDR, peptide start residue: 39) (UniProt Q9Y6B6)”, the log2 fold change was found to be 0.31.

Turning to “WSB1 (peptide sequence: TIGELLAPAAPFDKK, peptide start residue: 18) (UniProt Q9Y6I7)”, the log2 fold change was -0.141.

Turning to “UniProt Q9Y6X6 (peptide sequence: LSPLVLPIAK, peptide start residue: 344)”, the log2 fold change was -0.164.

Turning to “PPME1 (peptide sequence: HRFAEPIGGFQCVFPGC, peptide start residue: 370) (UniProt Q9Y570)”, the log2 fold change worked out at 0.654.

In the case of “SESN1 (peptide sequence: TVVCTPEKVTK, peptide start residue: 439) (UniProt Q9Y6P5)”, the log2 fold change was 0.531.

Take “CCDC61 (peptide sequence: ELEAQLGR, peptide start residue: 194) (UniProt Q9Y6R9)”: the log2 fold change is -0.179.

For the target “SUPT16H (peptide sequence: DLGFNGAPYR, peptide start residue: 803) (UniProt Q9Y5B9)”, the log2 fold change came out at 0.68.

Take “SH3BP1 (peptide sequence: RSLSSLDTALAELR, peptide start residue: 240) (UniProt Q9Y3L3)”: the log2 fold change was determined as 0.265.

For “EPN1 (peptide sequence: QLVALLRDEDR, peptide start residue: 129) (UniProt Q9Y6I3)”, the log2 fold change was 0.236.

For the target “UniProt Q9Y4F3 (peptide sequence: ELQQLLQEAFAR, peptide start residue: 806)”, the log2 fold change was -0.58.

For the target “TPRKB (peptide sequence: MQLTHQLDLFPECR, peptide start residue: 1) (UniProt Q9Y3C4)”, the log2 fold change is 0.33.

For “UniProt Q9Y3D0 (peptide sequence: EIFDLIR, peptide start residue: 45)”, the log2 fold change was -0.0798.

Regarding “FKBP7 (peptide sequence: KNDHDGDGFISPK, peptide start residue: 200) (UniProt Q9Y680)”, the log2 fold change was -0.502.

In the case of “CABIN1 (peptide sequence: LPILSSQAGATGK, peptide start residue: 1412) (UniProt Q9Y6J0)”, the log2 fold change was 0.417.

For “HDGFL3 (peptide sequence: DLFPYKEYK, peptide start residue: 61) (UniProt Q9Y3E1)”, the log2 fold change was -0.46.

For the target “NUMBL (peptide sequence: EKECGVTAAFDASR, peptide start residue: 203) (UniProt Q9Y6R0)”, the log2 fold change is -0.323.

Turning to “NCOA3 (peptide sequence: YLLDRDDPSDALSK, peptide start residue: 740) (UniProt Q9Y6Q9)”, the log2 fold change is -0.167.

As to “MYH4 (peptide sequence: QLEEETK, peptide start residue: 1322) (UniProt Q9Y623)”, the log2 fold change was -0.181.

“EID1 (peptide sequence: VSAALEEADKMFLR, peptide start residue: 124) (UniProt Q9Y6B2)”: the log2 fold change was -0.157.

Regarding “MRPS18C (peptide sequence: HITGLCGK, peptide start residue: 95) (UniProt Q9Y3D5)”, the log2 fold change was found to be 0.215.

For “MAD1L1 (peptide sequence: QELQEQLDLQHKK, peptide start residue: 188) (UniProt Q9Y6D9)”, the log2 fold change is -0.594.

As to “UniProt Q9Y3C0 (peptide sequence: FSTVCEEK, peptide start residue: 44)”, the log2 fold change was -0.357.

With “LRRFIP2 (peptide sequence: QYAENYTRPSSR, peptide start residue: 299) (UniProt Q9Y608)”, the log2 fold change is -0.217.

Take “GTF3C3 (peptide sequence: GEREEAILMCMEIIR, peptide start residue: 163) (UniProt Q9Y5Q9)”: the log2 fold change turned out to be 0.332.

In the case of “TRAF6 (peptide sequence: GFGYVTFMHLEALR, peptide start residue: 470) (UniProt Q9Y4K3)”, the log2 fold change came out at 0.199.

“MED31 (peptide sequence: FIDEQQILHWQHYSR, peptide start residue: 96) (UniProt Q9Y3C7)”: the log2 fold change is 0.159.

With “TIMM10B (peptide sequence: MTELCFQR, peptide start residue: 24) (UniProt Q9Y5J6)”, the log2 fold change was determined as 0.392.

Regarding “WDR7 (peptide sequence: NVILMAHDGK, peptide start residue: 1475) (UniProt Q9Y4E6)”, the log2 fold change came to 0.199.
